Experimental data reported in patent US20180185520A1, “COLLAGEN IMAGING COMPOSTIONS” (Collagen Medical, LLC, priority 2015, published 2018).
“And” between values parts separate entries of the source, which are not always exact repeats. Equal entries are not always repeated.

Tested on: infarcted myocardium
Format: in vivo, canine
Details: Infarct heart tissue, per animal

SMILES: CC(C)C[C@H](NC(=O)[C@@H]1CSSC[C@H](NC(=O)[C@H](Cc2c[nH]cn2)NC(=O)[C@H](Cc2c[nH]c3ccccc23)NC(=O)[C@H](CCCCNC(=O)CC[C@H](C(=O)O)N2CCN(CC(=O)O)CCN(CC(=O)O)CCN(CC(=O)O)CC2)NC(=O)CNC(=O)CC[C@H](C(=O)O)N2CCN(CC(=O)O)CCN(CC(=O)O)CCN(CC(=O)O)CC2)C(=O)N[C@@H]([C@@H](C)O)C(=O)N[C@@H]([C@@H](C)O)C(=O)N[C@@H](CCCCNC(=O)CC[C@H](C(=O)O)N2CCN(CC(=O)O)CCN(CC(=O)O)CCN(CC(=O)O)CC2)C(=O)N[C@@H](Cc2ccccc2)C(=O)N2CCC[C@H]2C(=O)N[C@@H](Cc2c[nH]cn2)C(=O)N[C@@H](Cc2c[nH]cn2)C(=O)N[C@@H](Cc2ccc(O)cc2)C(=O)N1)C(=O)N[C@@H](Cc1ccc(O)cc1)C(=O)N[C@@H](Cc1ccc(-c2ccccc2)cc1)C(N)=O [Compound ID No. 1]
- Hyp Avg (hydroxyproline, collagen): 2350.36 µg/g and 5594.81 µg/g
